The values that follow come from patent US7439226B2 (The United States of America as represented by the …, priority 2003, dated 2008).

This series is described as follows: general procedure: Fmoc solid-phase peptide synthesis; Fmoc-Gly-Rink acid resin (0.4 mmol/g); HBTU/HOBt. The settings on record: cyclisation step, from the monocyclic peptide material.

HELM strings list residues between dots; [ac] is acetyl, [am] amide, other brackets name non-standard units.

Turning to “PEPTIDE1{G.R.[AllylGly].T.K.S.I.P.P.I.[AllylGly].F.P.D}$PEPTIDE1,PEPTIDE1,1:R1-14:R2|PEPTIDE1,PEPTIDE1,3:R3-11:R3$$$V2.0”, the cyclisation yield came to 52%.
